Assay results: publication PMC12040169 (PLOS Biology, 2025)
This is one part of the list.

Tested on: T1, CTL2-GFP (C. trachomatis L2/434/Bu, GFP-expressing)
T1 construct: L2/434/Bu, GFP-expressing
Set-up: species or system HeLa; Intracellular C. trachomatis growth in HeLa cells, bulk GFP fluorescence relative to DMSO
Details: bulk GFP, single well; 28.5 h, 10 µM; inhibitor

SMILES	% of control remaining
CCCN1CCC(CNC(=O)c2cc3ccc(OC)cc3n2C)CC1 [CBK282542]	121.302%
Cc1ccc(CN(c2ccc(C(=O)O)cc2)S(C)(=O)=O)cc1 [CBK287203]	138.607%
NC(=O)CN1CCC(Oc2cncc(OCc3ccc(Cl)c(Cl)c3)n2)C1 (stereo not drawn) [CBK084429]	92.4722%
Cn1nc(C2CCN(C(=O)CC3CCCC3)CC2)c2cccnc21 [CBK284943]	132.085%
CCCCNS(=O)(=O)c1ccc(Cl)c(Cl)c1 [CBK044309]	132.818%
Nc1nonc1N/N=C/c1ccccc1F [CBK028838]	98.7526%
COc1ccc(CCCC(=O)N2CCC(c3c(C(N)=O)sc4ccccc34)C2)cc1C (stereo not drawn) [CBK285848]	128.082%
CCCCc1cc(C[C@@H]2C[C@H](NC(=O)N3CCOCC3)C2(C)C)no1 [CBK289257]	150.663%
Cc1ccccc1C(=O)NCC(=O)Nc1ccc2cc(Br)cnc2n1 [CBK063312]	90.9583%
O=C(c1cccs1)N1CCN(Cc2cc(=O)n3ccsc3n2)CC1 [CBK305872]	96.3317%
O=C(CCc1ccncc1)N1CCCCC1CN1CCCCCC1 (stereo not drawn) [CBK282102]	135.884%
CC(C)(C)C(=O)NC1(C(F)(F)F)N=C(c2ccccc2)NC1=O (stereo not drawn) [CBK267475]	163.011%
CCc1c(C)sc(NC(=O)C2CCC2)c1C(=O)NCc1cccnc1 [CBK307414]	92.5834%
CCc1ccc(Oc2c[nH]nc2-c2ccc(OCc3cnn(-c4ccccc4)c3)cc2O)cc1 [CBK266233]	122.989%
COc1ccc(-c2cc(C(=O)NCCc3c[nH]c4ccccc34)cnc2-c2ccc(F)cc2)cn1 [CBK036649]	201.84%
O=C(Nc1ccc2[nH]ccc2c1)c1ccc(F)c(F)c1 [CBK159683]	190.695%
COc1cc(C(=O)Nc2cc(-c3nc4ncccc4o3)ccc2C)ccc1OCc1ccc(Cl)cc1 [CBK264704]	113.076%
COc1ccc(CC(=O)N2CCNC(=O)C2Cc2ccccc2-c2ccccc2)cc1OC (stereo not drawn) [CBK285827]	129.358%
Clc1cc(-c2cnc3ccccc3n2)c(Cl)s1 [CBK006186]	116.549%
O=C(NC(C(=O)N/N=C/c1cccc(O)c1)c1n[nH]c(=O)c2ccccc12)c1ccccc1 (stereo not drawn) [CBK262853]	100%
O=C(CCSc1nnnn1-c1ccc(C(=O)O)cc1)Nc1ccc(F)cc1 [CBK300497]	165.857%
COc1ccc(S(=O)(=O)NC[C@H]2C[C@@H]3CC[N@]2C[C@@H]3CN2CCSCC2)cc1 [CBK288769]	103.582%
CCCCc1c(C(=O)O)cc(OC)cc1C(=O)O [CBK217866]	113.872%
CCCCCOc1ccc(Nc2cc(-c3ccco3)ncn2)cc1 [CBK090892]	127.539%
COc1ccc(CCNc2c(Cc3ccccc3)c(C)c(C#N)c3nc4ccccc4n23)cc1OC [CBK263135]	100%
CCCNc1cc(-c2cccc(Cl)c2)nc2ccnn12 [CBK037747]	201.032%

Rewritten with bars between the fields: two of the compounds above.
SMILES | % of control remaining
CCCCCOc1ccc(Nc2cc(-c3ccco3)ncn2)cc1 [CBK090892] | 127.539%
COc1ccc(CCNc2c(Cc3ccccc3)c(C)c(C#N)c3nc4ccccc4n23)cc1OC [CBK263135] | 100%

Some of the entries above in a different format:
SMILES | % of control remaining
Nc1nonc1N/N=C/c1ccccc1F [CBK028838] | 98.7526%
COc1ccc(CC(=O)N2CCNC(=O)C2Cc2ccccc2-c2ccccc2)cc1OC (stereo not drawn) [CBK285827] | 129.358%

Further entries.

SMILES	% of control remaining
CC(=O)N1c2ccc(NC(=O)C3(C)CCCO3)cc2CC1C (stereo not drawn) [CBK282702]	135.699%
Cc1n[nH]c(=S)n1-c1ccc(Cl)cc1 [CBK012457]	103.488%
Cc1ccc(O)c(NC(=O)c2nc3ncccn3n2)c1 [CBK267629]	132.29%
COc1nc(N)nc2c1ccn2C1CC(O)C(CO)O1 (stereo not drawn) [CBK201177]	88.7357%
C=Cn1ncc(CN2CCN(C3CCCCC3)C(=O)C2)c1C [CBK282526]	121.968%
O=C(CSc1cc(Cl)ccc1Cl)Nc1cccc(Cl)c1 [CBK263712]	75.4654%
O=C(c1ccco1)N1CCCC(n2c(=O)oc3ccc(Cl)cc32)C1 (stereo not drawn) [CBK282892]	103.515%
CC(C)Oc1ccc(C(=O)N2CCN(c3ccccc3)CC2)cc1 [CBK305847]	156.836%
COc1ccc([N+](=O)[O-])cc1N1CCN(C(=O)OC(C)(C)C)CC1 [CBK003504]	86.1325%
O=C(CN1C(=O)S/C(=C\c2ccc(Cl)cc2)C1=O)Nc1cc([N+](=O)[O-])ccc1O [CBK262396]	133.614%
CC(=O)N1CCN(c2ccc(NC(=O)c3cccc4c(Br)cccc34)cc2Cl)CC1 [CBK269624]	129.352%
Fc1ccc(-c2cncc(NCc3ccncc3)n2)cc1Cl [CBK065343]	188.14%
COc1ccc(Br)cc1CN(CCc1ccc2c(c1)OCO2)Cc1cccnc1 [CBK263327G]	98.5124%
N#Cc1ccc(NC(=O)CCn2cnnn2)cc1 [CBK269832]	116.099%
CCC(=O)N1CCC(NC(=O)N(CCc2ccccn2)Cc2ccccc2)CC1 [CBK171898]	140.472%
COCCNS(=O)(=O)c1cc(OCC(N)=O)c(C)cc1Cl [CBK266461]	112.86%
O=C(NCc1ccccc1)c1ccccc1NS(=O)(=O)c1ccccc1F [CBK113881]	60.3951%
CCc1ocnc1C(=O)NC1CCN(c2ncccc2C#N)CC1 [CBK306935]	90.388%
OC(CSc1ccccc1)CN1CCN(C(c2ccccc2)c2ccccc2)CC1 (stereo not drawn) [CBK074683]	99.4372%
Cc1nc(C)n(CC2CCCN(Cc3ccccc3C#N)C2)n1 (stereo not drawn) [CBK305085]	119.076%
CC1CCc2nn(CCNC(=O)c3cccs3)c(=O)cc2C1 (stereo not drawn) [CBK284483]	133.005%
Cc1sc2nc(C(C)N(C)Cc3cc[nH]n3)[nH]c(=O)c2c1C (stereo not drawn) [CBK306275]	127.196%
O=C(O)c1ccc(NS(=O)(=O)c2ccc3ccccc3c2)cc1 [CBK034053]	122.586%
O=c1n(Cc2ccncc2)nc(C(F)(F)F)c2cccn12 [CBK283966]	168.577%
Cc1cccc(OCC(=O)N2CCN(Cc3ccccn3)CC2)c1 [CBK134023G]	100%
OCc1cccc(-c2cncc(N3CCN(CCN4CCCC4)CC3)n2)c1 [CBK066136]	161.093%

SMILES	% of control remaining
O=C(O)C1CC(=O)N(c2cccc3ccccc23)C1 (stereo not drawn) [CBK286902]	128.632%
N#Cc1ccc(CSc2nnc(COc3ccccc3)n2Cc2ccco2)cc1 [CBK267539]	113.657%
CC1(C(=O)O)NC(c2ccccc2O)C2C(=O)N(c3ccccc3[N+](=O)[O-])C(=O)C21 (stereo not drawn) [CBK264979]	100%
CS(=O)(=O)NC1CCN(S(=O)(=O)c2cc(Cl)cc(Cl)c2)CC1 [CBK306082]	134.041%
O=C(NCC1(c2ccccc2)CCCC1)c1ccc(NC(=O)C2COc3ccccc3O2)cc1 (stereo not drawn) [CBK266558]	105.598%
Cc1ccc(-n2c(C)cc(/C=N/NC(=O)c3ccc(CN4CCOCC4)cc3)c2C)cc1 [CBK263324]	103.748%
Cc1nc(C)c(C(=O)N2Cc3ccccc3C2)s1 [CBK200326]	139.329%
Cc1ccc(CNC(=O)c2nnc(C(=O)Nc3cccc(Cl)c3)s2)o1 [CBK294404]	128.708%
O=C(/C=C/c1cn(-c2ccccc2)nc1-c1cccnc1)c1ccc(-c2ccccc2)cc1 [CBK263213]	130.338%
C=CCn1ncc(CN(CCN(C)C)Cc2ccc(C)o2)c1C [CBK282846]	121.88%
COc1ccc(C(C)(C)C)cc1S(=O)(=O)NC1CC(C)(C)NC(C)(C)C1 [CBK267865]	140.012%
O=C(COc1ccccc1[N+](=O)[O-])Nc1ccc(Br)cc1C(=O)O [CBK266008]	178.847%
Clc1ccc(COc2nccnc2OC2CCN(Cc3ccncc3)CC2)cc1Cl [CBK153792]	69.2419%
COC(=O)CC[C@H]1CNC(=O)[C@@H]2[C@@H](CCN2C)N1C [CBK289020]	151.041%
O=C1C(NCCO)=C(Nc2cccc(Cl)c2)C(=O)c2ccccc21 [CBK264323]	34.5586%
N#C/C(=C\c1ccc(N2CCOCC2)cc1)c1nc2ncc(Br)cc2[nH]1 [CBK266294]	100%
Cc1nc(C)c(CCC(=O)NC2CCCc3ccccc32)c(=O)[nH]1 (stereo not drawn) [CBK295600]	116.669%
CC(C)(C)OC(=O)N1CCN(c2nccnc2Cl)CC1 [CBK013554]	103.699%
Clc1cc(Cl)c2[nH]c3c(c2c1)CCc1nonc1-3 [CBK025929]	107.436%
CS(=O)(=O)Nc1ccc(C(=O)Nc2ccc(S(=O)(=O)N3CCOCC3)cc2)cc1 [CBK268379]	78.1318%
CC(C)N1CCC[C@@H]2CN(C(=O)c3cccc(C(F)(F)F)c3)C[C@@H]21 [CBK285525]	113.111%
CC1CN(C(=O)Nc2ccccc2F)CC(C)O1 (stereo not drawn) [CBK004990]	125.161%
Cc1ccc(C2(C)CC(C)(C)N(C(=O)CSc3nnc[nH]3)c3ccccc32)cc1 (stereo not drawn) [CBK073918]	40.2071%
COc1ccc(Cc2c(C)nc3c(C(=O)NCC4COc5ccccc5O4)cnn3c2C)cc1 (stereo not drawn) [CBK162179]	121.163%
N#Cc1ccc(-c2cnc(N)c(-c3ccc(C(=O)N4CCOCC4)cc3)n2)cc1 [CBK064067T]	77.6886%
NC(=O)C1(N2CCCCC2)CCN(C2CC(=O)N(Cc3ccc(N4CCCC4=O)cc3)C2=O)CC1 (stereo not drawn) [CBK266598]	152.553%
